We go through 1 substance from article PMC3971453.

Sequences of proteins named here, by UniProt entry; tags and fusion partners are left off. A change or cut given only in a name is not applied to a line headed by its entry.
UniProt P06451: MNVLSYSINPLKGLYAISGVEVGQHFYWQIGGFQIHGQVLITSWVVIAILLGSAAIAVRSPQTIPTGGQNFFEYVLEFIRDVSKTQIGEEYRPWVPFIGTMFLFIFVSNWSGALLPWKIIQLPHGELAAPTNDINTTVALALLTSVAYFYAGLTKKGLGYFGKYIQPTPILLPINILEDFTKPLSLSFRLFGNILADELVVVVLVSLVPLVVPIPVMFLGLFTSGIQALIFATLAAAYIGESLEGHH
UniProt P06453: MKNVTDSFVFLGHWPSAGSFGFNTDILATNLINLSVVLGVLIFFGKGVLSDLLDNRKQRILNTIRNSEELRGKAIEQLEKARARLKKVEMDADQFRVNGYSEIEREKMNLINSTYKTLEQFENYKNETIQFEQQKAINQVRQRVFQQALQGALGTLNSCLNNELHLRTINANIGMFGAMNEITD
UniProt P31853: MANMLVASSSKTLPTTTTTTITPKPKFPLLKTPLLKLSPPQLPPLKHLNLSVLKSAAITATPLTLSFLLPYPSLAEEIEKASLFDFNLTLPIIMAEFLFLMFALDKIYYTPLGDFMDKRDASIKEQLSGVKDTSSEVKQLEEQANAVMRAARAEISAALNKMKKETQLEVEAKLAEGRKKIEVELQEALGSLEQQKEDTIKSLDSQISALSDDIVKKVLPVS
UniProt P69447: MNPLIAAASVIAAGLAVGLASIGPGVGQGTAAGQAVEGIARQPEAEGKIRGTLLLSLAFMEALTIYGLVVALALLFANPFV
UniProt P06450: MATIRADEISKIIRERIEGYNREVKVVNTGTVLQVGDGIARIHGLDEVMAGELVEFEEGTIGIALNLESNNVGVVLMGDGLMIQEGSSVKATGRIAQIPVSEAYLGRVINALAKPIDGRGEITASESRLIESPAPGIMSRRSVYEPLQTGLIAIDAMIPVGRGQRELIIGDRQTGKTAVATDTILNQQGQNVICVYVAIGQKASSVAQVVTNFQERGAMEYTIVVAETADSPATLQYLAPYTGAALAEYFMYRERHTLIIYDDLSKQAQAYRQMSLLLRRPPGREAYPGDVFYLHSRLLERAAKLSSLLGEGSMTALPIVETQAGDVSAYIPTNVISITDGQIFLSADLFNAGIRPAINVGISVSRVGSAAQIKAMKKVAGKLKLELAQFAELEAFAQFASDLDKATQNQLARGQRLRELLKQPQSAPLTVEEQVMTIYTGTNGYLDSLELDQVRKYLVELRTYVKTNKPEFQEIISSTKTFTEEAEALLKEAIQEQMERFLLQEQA

No constants are given. Whether binding was seen depends on the method and setting. Some binding calls cover weakened binding; strength is not graded here.

In this assay the target is membrane-integrated FO domain (CFO) of the spinach CF1FO-ATP synthase (spinach (Spinacea oleracea L.)) (UniProt P06451+P06453+P31853+P69447). In words: native gel or EMSA; BN-PAGE, 3.5 to 16% acrylamide gradient; about 30 μg of solubilized purified CF1FO-ATP synthase in DDM per lane; both purified. A general note: In EMSA bound probe runs differently from free probe, usually more slowly.

Turning to “chloroplast F1 domain (CF1) of the spinach CF1FO-ATP synthase (from UniProt P06450 1-507; P00825 1-498; P05435 42-364; P11402 71-257; P00833 1-134) (complex)”, the binding entry is reported as “binds”.
